These are yes or no findings as the source states them, for the method shown. In cells and extracts the contact can be indirect. Some results given as binding are weak or reduced against the parent protein; the word gives no strength. Where a sequence is shown, tags or fusion partners need not be part of it.
Columns and labels:
[1] = biological target: T1, V5-tagged Imd full length (Drosophila) (UniProt Q7K4Z4); experiment: co-IP; S2 cells cotransfected with pAc-Imd-V5 and a control empty plasmid; anti-V5 IP, blot for endogenous Pros45
T1 sequence: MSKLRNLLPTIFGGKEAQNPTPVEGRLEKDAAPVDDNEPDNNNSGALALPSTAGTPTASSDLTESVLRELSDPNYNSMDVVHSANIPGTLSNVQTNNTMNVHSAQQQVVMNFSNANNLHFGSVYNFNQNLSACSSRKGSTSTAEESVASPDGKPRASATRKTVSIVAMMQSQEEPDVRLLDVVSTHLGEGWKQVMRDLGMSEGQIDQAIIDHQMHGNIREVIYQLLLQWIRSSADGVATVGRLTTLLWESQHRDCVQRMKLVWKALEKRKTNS

Amino acid sequences for entries named in this document (tags omitted).
UniProt O18413: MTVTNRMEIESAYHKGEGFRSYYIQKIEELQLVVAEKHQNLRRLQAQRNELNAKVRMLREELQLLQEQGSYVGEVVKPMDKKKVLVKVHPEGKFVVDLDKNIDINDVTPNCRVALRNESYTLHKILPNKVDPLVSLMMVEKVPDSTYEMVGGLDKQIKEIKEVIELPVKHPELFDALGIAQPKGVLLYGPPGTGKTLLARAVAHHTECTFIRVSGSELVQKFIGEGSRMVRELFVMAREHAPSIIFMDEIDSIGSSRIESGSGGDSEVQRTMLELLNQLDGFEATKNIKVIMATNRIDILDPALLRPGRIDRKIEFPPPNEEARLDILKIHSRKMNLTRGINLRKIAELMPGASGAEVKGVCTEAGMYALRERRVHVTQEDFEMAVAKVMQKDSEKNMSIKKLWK

[2] = biological target: T1, V5-tagged Imd full length (Drosophila); experiment: co-IP; S2 cells cotransfected with pAc-Imd-V5 and pAc-Usp2 (USP2 overexpressed); anti-V5 IP, blot for endogenous Pros45

“proteasomal subunit 8 (Pros45) (from UniProt O18413 1-405)” was tested, and the binding [1] was “binds weakly” and the binding [2] was “binds”.
